Measurements: the supplement of paper PMC12067093, “Discovery and optimisation of a covalent ligand for TRIM25 and its application to targeted protein ubiquitination” (Chemical Science, 2025)
This is one part of the list.

Sequences of proteins named here, by UniProt entry; tags and fusion partners are left off. A change or cut given only in a name is not applied to a line headed by its entry.
UniProt Q9H6T3, whole entry, looked up: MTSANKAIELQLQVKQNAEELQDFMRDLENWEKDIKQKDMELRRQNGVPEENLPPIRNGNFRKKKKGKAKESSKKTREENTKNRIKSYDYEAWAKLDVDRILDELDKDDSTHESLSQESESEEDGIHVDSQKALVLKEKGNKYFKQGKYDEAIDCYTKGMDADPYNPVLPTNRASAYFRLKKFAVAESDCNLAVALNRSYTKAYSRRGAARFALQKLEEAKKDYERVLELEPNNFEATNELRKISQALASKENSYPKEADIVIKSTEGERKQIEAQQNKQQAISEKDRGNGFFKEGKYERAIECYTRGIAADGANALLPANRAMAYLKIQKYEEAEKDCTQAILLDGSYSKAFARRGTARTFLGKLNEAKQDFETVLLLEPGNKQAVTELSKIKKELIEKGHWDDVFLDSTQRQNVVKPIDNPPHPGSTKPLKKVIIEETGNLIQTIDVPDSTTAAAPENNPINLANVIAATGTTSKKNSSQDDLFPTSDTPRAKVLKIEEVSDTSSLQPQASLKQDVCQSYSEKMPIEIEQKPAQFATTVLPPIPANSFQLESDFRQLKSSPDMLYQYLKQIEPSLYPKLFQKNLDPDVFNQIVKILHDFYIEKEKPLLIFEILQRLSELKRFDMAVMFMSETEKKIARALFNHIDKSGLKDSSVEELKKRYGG
UniProt Q63HN8: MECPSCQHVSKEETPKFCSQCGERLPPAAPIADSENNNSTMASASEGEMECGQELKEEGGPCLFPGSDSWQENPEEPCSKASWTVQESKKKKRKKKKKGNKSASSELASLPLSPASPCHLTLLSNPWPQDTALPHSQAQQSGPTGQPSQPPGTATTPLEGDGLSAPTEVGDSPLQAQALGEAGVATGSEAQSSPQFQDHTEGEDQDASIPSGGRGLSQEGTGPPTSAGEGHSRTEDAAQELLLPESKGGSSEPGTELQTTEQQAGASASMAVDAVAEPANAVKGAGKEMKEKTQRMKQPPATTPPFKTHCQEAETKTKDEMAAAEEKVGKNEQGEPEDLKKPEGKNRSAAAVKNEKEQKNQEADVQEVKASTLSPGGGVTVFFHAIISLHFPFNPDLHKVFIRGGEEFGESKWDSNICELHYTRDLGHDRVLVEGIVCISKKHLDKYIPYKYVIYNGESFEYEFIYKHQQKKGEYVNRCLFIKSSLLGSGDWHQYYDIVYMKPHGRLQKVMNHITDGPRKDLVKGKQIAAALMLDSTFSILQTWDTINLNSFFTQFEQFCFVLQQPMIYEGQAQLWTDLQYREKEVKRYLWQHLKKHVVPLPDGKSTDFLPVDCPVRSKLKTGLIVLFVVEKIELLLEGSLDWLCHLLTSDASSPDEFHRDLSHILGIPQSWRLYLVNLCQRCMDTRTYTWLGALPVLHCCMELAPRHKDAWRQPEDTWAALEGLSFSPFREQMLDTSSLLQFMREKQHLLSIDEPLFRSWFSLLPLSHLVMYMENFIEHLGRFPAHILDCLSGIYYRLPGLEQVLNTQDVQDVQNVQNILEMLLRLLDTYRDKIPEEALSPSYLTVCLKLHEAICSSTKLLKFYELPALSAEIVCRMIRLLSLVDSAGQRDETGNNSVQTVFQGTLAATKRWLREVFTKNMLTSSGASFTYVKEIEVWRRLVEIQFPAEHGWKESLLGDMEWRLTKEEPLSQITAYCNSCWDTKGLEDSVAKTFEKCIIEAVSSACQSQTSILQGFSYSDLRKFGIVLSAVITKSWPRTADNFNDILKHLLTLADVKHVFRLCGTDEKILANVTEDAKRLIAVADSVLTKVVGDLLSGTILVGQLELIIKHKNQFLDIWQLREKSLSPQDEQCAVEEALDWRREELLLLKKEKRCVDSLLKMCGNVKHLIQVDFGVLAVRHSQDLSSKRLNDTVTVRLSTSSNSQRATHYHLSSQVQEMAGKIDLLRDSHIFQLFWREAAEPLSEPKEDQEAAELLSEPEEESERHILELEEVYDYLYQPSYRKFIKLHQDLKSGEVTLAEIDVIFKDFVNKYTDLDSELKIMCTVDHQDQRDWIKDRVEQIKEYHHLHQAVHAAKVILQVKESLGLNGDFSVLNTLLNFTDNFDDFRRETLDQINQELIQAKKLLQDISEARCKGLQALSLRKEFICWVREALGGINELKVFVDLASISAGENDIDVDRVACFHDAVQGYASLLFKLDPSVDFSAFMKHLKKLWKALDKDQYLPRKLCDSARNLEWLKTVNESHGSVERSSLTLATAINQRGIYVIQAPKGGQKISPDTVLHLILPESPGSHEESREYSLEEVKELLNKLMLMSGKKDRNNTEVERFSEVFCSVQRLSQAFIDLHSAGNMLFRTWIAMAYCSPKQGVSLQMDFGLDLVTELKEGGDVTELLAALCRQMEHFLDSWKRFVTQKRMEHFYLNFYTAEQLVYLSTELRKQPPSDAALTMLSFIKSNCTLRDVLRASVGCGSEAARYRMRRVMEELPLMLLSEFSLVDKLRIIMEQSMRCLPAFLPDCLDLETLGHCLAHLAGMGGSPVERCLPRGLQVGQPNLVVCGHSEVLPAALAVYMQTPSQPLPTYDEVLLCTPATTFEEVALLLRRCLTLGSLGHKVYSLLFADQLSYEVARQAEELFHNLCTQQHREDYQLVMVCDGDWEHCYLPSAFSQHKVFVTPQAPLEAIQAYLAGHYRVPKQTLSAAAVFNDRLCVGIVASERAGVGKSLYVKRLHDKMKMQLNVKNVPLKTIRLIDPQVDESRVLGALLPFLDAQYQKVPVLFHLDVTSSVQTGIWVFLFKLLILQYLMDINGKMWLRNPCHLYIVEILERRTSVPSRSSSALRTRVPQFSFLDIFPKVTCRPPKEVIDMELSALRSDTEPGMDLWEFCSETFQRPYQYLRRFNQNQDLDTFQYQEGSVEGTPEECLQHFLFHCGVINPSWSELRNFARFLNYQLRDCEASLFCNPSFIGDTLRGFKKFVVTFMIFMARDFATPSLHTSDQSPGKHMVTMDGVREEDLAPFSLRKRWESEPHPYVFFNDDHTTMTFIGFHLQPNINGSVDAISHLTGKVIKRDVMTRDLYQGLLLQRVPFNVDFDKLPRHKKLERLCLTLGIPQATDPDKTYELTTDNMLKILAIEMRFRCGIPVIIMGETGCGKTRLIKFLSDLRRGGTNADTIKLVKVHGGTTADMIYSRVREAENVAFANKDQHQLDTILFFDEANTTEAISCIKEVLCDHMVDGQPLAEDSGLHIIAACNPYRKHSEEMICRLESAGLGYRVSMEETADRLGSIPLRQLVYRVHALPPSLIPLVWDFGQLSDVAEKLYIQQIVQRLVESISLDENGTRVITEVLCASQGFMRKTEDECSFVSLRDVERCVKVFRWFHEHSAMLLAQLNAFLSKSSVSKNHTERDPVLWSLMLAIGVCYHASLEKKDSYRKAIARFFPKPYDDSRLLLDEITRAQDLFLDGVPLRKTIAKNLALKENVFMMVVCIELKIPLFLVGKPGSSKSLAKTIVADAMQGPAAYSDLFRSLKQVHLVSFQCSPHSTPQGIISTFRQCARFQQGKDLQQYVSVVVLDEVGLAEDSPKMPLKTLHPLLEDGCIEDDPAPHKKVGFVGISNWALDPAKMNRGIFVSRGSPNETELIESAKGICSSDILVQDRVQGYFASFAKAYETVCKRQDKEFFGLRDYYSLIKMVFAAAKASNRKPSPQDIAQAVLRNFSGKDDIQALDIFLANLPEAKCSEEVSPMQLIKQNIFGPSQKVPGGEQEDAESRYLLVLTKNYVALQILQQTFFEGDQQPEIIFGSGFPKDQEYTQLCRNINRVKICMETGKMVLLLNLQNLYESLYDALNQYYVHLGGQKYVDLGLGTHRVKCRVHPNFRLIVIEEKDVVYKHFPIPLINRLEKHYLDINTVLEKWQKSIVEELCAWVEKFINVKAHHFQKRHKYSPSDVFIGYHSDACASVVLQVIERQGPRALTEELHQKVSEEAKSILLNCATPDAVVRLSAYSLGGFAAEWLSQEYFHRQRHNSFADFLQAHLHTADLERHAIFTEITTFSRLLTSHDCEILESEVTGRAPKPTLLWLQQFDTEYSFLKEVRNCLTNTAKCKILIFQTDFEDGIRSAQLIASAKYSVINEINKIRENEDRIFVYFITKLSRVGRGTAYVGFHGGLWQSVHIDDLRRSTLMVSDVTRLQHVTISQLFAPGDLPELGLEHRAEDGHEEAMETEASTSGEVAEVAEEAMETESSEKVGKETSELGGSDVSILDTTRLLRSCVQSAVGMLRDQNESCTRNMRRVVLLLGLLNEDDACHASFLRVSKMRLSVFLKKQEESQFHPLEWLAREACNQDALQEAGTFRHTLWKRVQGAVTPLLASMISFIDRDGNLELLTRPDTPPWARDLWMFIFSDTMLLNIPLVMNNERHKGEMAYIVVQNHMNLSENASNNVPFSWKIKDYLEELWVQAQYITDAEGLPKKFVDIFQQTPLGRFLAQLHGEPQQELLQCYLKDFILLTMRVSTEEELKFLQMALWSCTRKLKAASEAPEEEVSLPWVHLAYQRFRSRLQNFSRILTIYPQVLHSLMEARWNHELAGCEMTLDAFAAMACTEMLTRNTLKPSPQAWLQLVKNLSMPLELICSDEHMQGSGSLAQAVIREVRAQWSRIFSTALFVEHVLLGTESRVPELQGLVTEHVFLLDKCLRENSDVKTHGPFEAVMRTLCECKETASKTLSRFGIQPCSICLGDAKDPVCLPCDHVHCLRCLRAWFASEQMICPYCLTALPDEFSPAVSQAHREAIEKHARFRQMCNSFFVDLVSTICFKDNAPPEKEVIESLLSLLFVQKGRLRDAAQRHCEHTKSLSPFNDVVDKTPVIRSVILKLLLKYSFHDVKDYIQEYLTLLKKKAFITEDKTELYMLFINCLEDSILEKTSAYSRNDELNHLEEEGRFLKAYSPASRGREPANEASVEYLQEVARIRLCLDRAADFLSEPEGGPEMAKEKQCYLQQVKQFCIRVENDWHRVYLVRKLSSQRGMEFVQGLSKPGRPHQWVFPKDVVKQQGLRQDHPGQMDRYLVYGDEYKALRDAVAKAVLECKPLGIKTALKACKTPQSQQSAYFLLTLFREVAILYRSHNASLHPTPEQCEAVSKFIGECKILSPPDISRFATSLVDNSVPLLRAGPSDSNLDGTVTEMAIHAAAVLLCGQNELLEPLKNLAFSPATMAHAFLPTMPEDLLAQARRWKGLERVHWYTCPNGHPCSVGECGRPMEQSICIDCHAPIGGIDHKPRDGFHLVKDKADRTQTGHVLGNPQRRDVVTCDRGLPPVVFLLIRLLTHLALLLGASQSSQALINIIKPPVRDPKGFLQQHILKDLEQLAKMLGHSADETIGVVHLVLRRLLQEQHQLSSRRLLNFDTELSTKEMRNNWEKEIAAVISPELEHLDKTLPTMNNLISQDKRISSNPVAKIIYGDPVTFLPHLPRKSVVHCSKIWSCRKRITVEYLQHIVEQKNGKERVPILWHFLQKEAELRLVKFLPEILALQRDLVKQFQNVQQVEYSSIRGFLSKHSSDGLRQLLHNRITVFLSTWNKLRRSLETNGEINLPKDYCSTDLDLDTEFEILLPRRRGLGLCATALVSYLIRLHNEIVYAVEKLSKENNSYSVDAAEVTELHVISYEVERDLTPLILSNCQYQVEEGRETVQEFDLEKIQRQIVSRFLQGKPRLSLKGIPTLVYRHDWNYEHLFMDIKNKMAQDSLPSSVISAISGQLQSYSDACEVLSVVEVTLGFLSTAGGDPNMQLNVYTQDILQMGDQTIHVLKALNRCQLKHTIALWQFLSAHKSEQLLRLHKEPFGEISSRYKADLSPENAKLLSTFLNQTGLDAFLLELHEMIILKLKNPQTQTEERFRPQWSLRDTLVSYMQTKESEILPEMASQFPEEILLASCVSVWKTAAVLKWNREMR
UniProt P13489: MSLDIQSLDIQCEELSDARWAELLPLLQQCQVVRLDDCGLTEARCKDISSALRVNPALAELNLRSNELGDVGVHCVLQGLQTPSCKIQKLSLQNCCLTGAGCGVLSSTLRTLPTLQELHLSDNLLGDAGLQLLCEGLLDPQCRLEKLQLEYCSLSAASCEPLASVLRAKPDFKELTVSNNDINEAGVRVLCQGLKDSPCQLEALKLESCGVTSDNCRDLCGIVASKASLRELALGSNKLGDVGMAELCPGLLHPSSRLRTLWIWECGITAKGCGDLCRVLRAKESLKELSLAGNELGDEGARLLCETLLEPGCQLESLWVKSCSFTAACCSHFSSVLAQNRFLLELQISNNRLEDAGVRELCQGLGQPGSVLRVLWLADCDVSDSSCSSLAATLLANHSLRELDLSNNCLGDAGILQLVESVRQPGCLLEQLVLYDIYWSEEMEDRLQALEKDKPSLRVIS

The targets below were run with Cc1cc(ccc1-c1ccccc1)C(=O)N1CCCN(CC1)C(=O)CCl [compound 10] (assay: probe-labelled cysteine peptide fold change vs DMSO (competition) (log2 fold change); higher = less target engagement (more negative = stronger competition)). Conditions: 10 µM; THP-1; incubation time: 4 h.
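Also: competitive profiling in live THP-1 cells: cysteine peptides tagged with an iodoacetamide desthiobiotin (IA-DTB) probe, intensity after compound treatment relative to DMSO-treated cells.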

| Target | probe-labelled cysteine peptide fold change |
| --- | --- |
| RPL12_P30050_17_CTGGEVGATSALAPK (UniProt P30050) | -0.0136 |
| RNF41_Q9H4P4_238_SLVESGCPASIVNELIENAHER (UniProt Q9H4P4) | 0.0275 |
| RPRD2_Q5VT52_88_LNLFYLANDVIQNCK (UniProt Q5VT52) | -0.0751 |
| RPAP3_Q9H6T3_190_FAVAESDCNLAVALNR (UniProt Q9H6T3) | 0.0942 |
| RNF20_Q5VTR2_960_CNAAFGANDFHR (UniProt Q5VTR2) | 0.279 |
| RNPEP_Q9H4A4_254_VWAEPCLIDAAK (UniProt Q9H4A4) | 0.221 |
| RNF213_Q63HN8_700_TYTWLGALPVLHCCMELAPR (UniProt Q63HN8) | 0.146 |
| RNH1_P13489_75+85_SNELGDVGVHCVLQGLQTPSCKIQK (UniProt P13489) | -0.193 |
| RNH1_P13489_152+159_LQLEYCSLSAASCEPLASVLR (UniProt P13489) | -0.155 |
| RNH1_P13489_216_LESCGVTSDNCR (UniProt P13489) | 0.131 |
| RPL34_P49207_46_SACGVCPGR (UniProt P49207) | -0.0589 |
| RNPEP_Q9H4A4_130_ERPGSEEPPAEPVSFYTQPFSHYGQALCVSFPQPCR (UniProt Q9H4A4) | 0.0871 |
| RNH1_P13489_273+277_GCGDLCR (UniProt P13489) | -0.129 |
| RNF31_Q96EP0_817_EQLEATCPQCHQTFCVR (UniProt Q96EP0) | 0.153 |
| RNF31_Q96EP0_572_HGNLDEAVEECVR (UniProt Q96EP0) | -0.0246 |
| RNF213_Q63HN8_418_WDSNICELHYTR (UniProt Q63HN8) | -0.102 |

No new results follow: entries from further up.

| Target | probe-labelled cysteine peptide fold change |
| --- | --- |
| RNH1_P13489_152+159_LQLEYCSLSAASCEPLASVLR (UniProt P13489) | -0.155 |
| RNH1_P13489_216_LESCGVTSDNCR (UniProt P13489) | 0.131 |
